One series concerns the target SALL4 QID-ZFC4mut (UniProt Q8BX22). In words: SPR. Conditions: 5 uM ZnCl2 in buffer, no binding (up to 25 uM).
The next series deals with T1, SALL4 ZFC4 (UniProt Q8BX22).
T1 sequence (looked up, limits assumed): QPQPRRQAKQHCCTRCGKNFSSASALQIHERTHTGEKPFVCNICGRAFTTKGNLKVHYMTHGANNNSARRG
Kind of series: SPR. Conditions: 5 uM ZnCl2 in buffer, second to QID-ZFC4, any KD only in figure.

The exact form of at least one protein or probe is not confirmed. For some assays here: No signal at the amounts used counts as a negative. For some assays here: The comparison behind a weaker result is the experiment's own reference, which may not be listed here. For some assays here: Where a protein sequence is shown, tags need not be part of it.

The values that follow come from doi:10.1101/2025.10.27.684836 (bioRxiv, 2025).

“AGCAGGCCTAATATCGCAC (double strand) [SPR probe, single ATATTA motif]”: the binding result is listed as “no binding” with SALL4 QID-ZFC4mut and “binds more weakly” in the series with SALL4 ZFC4.
